# Assay results: patent US7763601B2, “Prevention and treatment of obesity” (N-Gene Research Laboratories, Inc., priority 2006, dated 2010)
# For at least one compound, name, drawing or mass did not settle the structure.
# Tested on: female Wistar rats
# Experiment: Body weight gain induced by olanzapine in rats, 28 days
# Assay type: in vivo, rat
# Protocol: Groups of female Wistar rats were treated with vehicle (control group) and the agents to be tested for 28 days. Each group consisted of 6 animals fed with normal laboratory chow and tap water ad libitum. The agents to be tested were administered twice daily, at 8 h and 18 h, perorally. The antipsychotic olanzapine was administered in a dose of 1 mg/kg to induce body weight gain.
structure (smiles),measurement,setting,value
"CN(CCOc1ccc(CC2SC(=O)NC2=O)cc1)c1ccccn1 (centres unmarked) [Rosiglitazone, rosiglitazone]",effect on average weight relative to the control group,agent alone,somewhat higher average weight relative to the control group
same,effect on the weight gain induced by olanzapine,agent together with olanzapine 1 mg/kg,even increased the weight gain induced by olanzapine
